Assay results taken from US8173697B2, “Alkoxyalkyl-substituted cyclic keto-enols” (Bayer CropScience AG, priority 2006, dated 2012).
Some of these results come from one statement about several compounds together.

Columns and labels:
Myzus persicae = assay: Myzus test (MYZUPE spray treatment); type: in vivo; conditions: 500 g/ha, sprayed leaf discs of Chinese cabbage
Spodoptera frugiperda = Spodoptera frugiperda test (SPODFR spray treatment); type: in vivo; conditions: 500 g/ha, sprayed leaf discs of maize
Lucilia cuprina larvae = assay: Lucilia cuprina test (LUCICU); type: in vivo; conditions: 100 ppm, treated horse meat
Boophilus microplus = Boophilus microplus test (BOOPMI injection); type: in vivo; conditions: 20 μg/animal, injection into the abdomen
Lolium multiflorum = assay: Pre-emergence herbicidal effect (Example No. 8); type: in vivo; conditions: 320 g/ha a.i., after 3 weeks
Setaria viridis [1] = assay: Pre-emergence herbicidal effect (Example No. 8); type: in vivo; conditions: 320 g/ha a.i., after 3 weeks
Echinocloa crus-galli = assay: Post-emergence herbicidal effect (Example No. 8); type: in vivo; conditions: 80 g/ha, about 3 weeks
Setaria viridis [2] = assay: Post-emergence herbicidal effect (Example No. 8); type: in vivo; conditions: 80 g/ha, about 3 weeks
Phaedon cochleariae = assay: Phaedon test (PHAECO spray treatment); conditions: 500 g/ha, sprayed leaf discs of Chinese cabbage
Tetranychus urticae = assay: Tetranychus test, OP-resistant (TETRUR spray treatment); type: in vivo; conditions: 100 g/ha, bean plants
Meloidogyne incognita = assay: Meloidogyne test (MELGIN spray treatment); type: in vivo; conditions: 20 ppm, lettuce

COCC1(C)NC(=O)C(c2cc(-c3ccc(Cl)cc3)ccc2Cl)=C1O (stereo not drawn) [I-a-6]
≥ 80%: activity (effect in %, aphids killed) (Myzus persicae) | activity (effect in %, caterpillars killed) (Spodoptera frugiperda) | activity (destruction in %, larvae killed) (Lucilia cuprina larvae) | activity (effect in %, no fertile eggs laid) (Boophilus microplus) | pre-emergence effect (herbicidal effect in percent) (Lolium multiflorum) | pre-emergence effect (herbicidal effect in percent) (Setaria viridis [1]) | post-emergence effect (herbicidal effect in percent) (Echinocloa crus-galli) | post-emergence effect (herbicidal effect in percent) (Setaria viridis [2]) | activity (effect in %, beetle larvae killed) (Phaedon cochleariae)

COCC1(C)NC(=O)C(c2c(C)ccc(-c3ccc(Cl)cc3)c2C)=C1O (stereo not drawn) [I-a-7]
≥ 80%: activity (effect in %, spider mites killed) (Tetranychus urticae) | activity (effect in %, caterpillars killed) (Spodoptera frugiperda) | activity (destruction in %, larvae killed) (Lucilia cuprina larvae) | activity (effect in %, no fertile eggs laid) (Boophilus microplus) | post-emergence effect (herbicidal effect in percent) (Echinocloa crus-galli) | post-emergence effect (herbicidal effect in percent) (Setaria viridis [2]) | activity (effect in %, beetle larvae killed) (Phaedon cochleariae)

COCC1(C)NC(=O)C(c2c(C)ccc(-c3ccc(F)cc3)c2C)=C1O (stereo not drawn) [I-a-8]
≥ 80%: activity (effect in %, aphids killed) (Myzus persicae) | activity (effect in %, caterpillars killed) (Spodoptera frugiperda) | activity (nematicidal effect in % from the formation of galls) (Meloidogyne incognita) | activity (effect in %, beetle larvae killed) (Phaedon cochleariae)

COCC1(C)NC(=O)C(c2cc(-c3ccc(Cl)c(F)c3)ccc2C)=C1O (stereo not drawn) [I-a-11]
≥ 80%: activity (effect in %, aphids killed) (Myzus persicae) | activity (effect in %, caterpillars killed) (Spodoptera frugiperda) | activity (nematicidal effect in % from the formation of galls) (Meloidogyne incognita) | activity (effect in %, beetle larvae killed) (Phaedon cochleariae)

COCCC1(C)NC(=O)C(c2c(C)ccc(-c3ccc(F)cc3)c2C)=C1O (stereo not drawn) [I-a-22]
≥ 80%: activity (effect in %, aphids killed) (Myzus persicae) | activity (effect in %, spider mites killed) (Tetranychus urticae) | activity (nematicidal effect in % from the formation of galls) (Meloidogyne incognita) | activity (effect in %, beetle larvae killed) (Phaedon cochleariae)

COCCC1(C)NC(=O)C(c2cc(-c3ccc(F)cc3)ccc2C)=C1O (stereo not drawn) [I-a-23]
≥ 80%: activity (effect in %, aphids killed) (Myzus persicae) | activity (effect in %, spider mites killed) (Tetranychus urticae) | activity (nematicidal effect in % from the formation of galls) (Meloidogyne incognita) | activity (effect in %, beetle larvae killed) (Phaedon cochleariae)

CCOC(=O)OC1=C(c2cc(-c3ccc(Cl)cc3)ccc2C)C(=O)NC1(C)COC (stereo not drawn) [I-c-5]
≥ 80%: activity (effect in %, aphids killed) (Myzus persicae) | activity (effect in %, spider mites killed) (Tetranychus urticae) | activity (effect in %, caterpillars killed) (Spodoptera frugiperda) | activity (destruction in %, larvae killed) (Lucilia cuprina larvae) | activity (effect in %, no fertile eggs laid) (Boophilus microplus) | pre-emergence effect (herbicidal effect in percent) (Lolium multiflorum) | pre-emergence effect (herbicidal effect in percent) (Setaria viridis [1]) | post-emergence effect (herbicidal effect in percent) (Echinocloa crus-galli) | post-emergence effect (herbicidal effect in percent) (Setaria viridis [2]) | activity (effect in %, beetle larvae killed) (Phaedon cochleariae)
